# Experimental data taken from the supplement of paper PMC3334620.
# In all, about 33,000 sequences were measured (“E-score (-0.5 to 0.5)”: median about -0.015, highest 2% from about 0.3 on). The list shows a part of the results.
# Target: T1, Abf1 (UniProt P14164)
# T1 sequence: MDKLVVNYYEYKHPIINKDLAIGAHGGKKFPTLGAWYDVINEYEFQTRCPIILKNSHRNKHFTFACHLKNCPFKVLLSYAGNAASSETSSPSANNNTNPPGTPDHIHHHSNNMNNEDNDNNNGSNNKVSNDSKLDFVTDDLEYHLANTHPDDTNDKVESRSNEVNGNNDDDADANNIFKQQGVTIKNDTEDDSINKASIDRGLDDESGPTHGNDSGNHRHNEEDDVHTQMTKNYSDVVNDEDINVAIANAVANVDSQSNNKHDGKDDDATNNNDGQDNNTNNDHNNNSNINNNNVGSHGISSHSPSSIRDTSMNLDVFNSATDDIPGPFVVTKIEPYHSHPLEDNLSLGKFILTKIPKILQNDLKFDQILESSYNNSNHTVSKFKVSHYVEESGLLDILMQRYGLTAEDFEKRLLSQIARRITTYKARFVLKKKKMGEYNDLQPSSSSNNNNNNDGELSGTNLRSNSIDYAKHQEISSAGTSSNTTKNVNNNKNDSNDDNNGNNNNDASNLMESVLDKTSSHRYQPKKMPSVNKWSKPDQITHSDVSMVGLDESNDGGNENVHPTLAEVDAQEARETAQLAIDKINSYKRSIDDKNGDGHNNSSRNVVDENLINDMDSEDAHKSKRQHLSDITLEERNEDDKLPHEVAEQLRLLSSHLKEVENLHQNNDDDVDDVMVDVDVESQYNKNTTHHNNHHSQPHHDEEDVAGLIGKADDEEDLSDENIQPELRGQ
# Experiment: PBM E-score (8-mer binding enrichment) (E-score (-0.5 to 0.5)); higher = stronger / more preferred TF binding
# Conditions: protein concentration: 200 nM; construct: GST-full length
# In short: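 PURExpress in vitro transcription/translation supplied GST-tagged yeast transcription factors, either full-length or DNA-binding domain. Applied at about 100-200 nM to universal all-10-mer Agilent arrays double-stranded by primer extension, the bound protein was detected with fluorescent anti-GST. E-scores, modified Wilcoxon-Mann-Whitney statistics, were given by the Universal PBM Analysis Suite to ungapped eight-base words pooled with their reverse complements after masliner normalisation.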
row,Sequence,PBM E-score
1,CTGGTCGA,-0.26
2,GCACATAC,-0.275
3,ACGTCTCA,0.248
4,ACGGTTTC,0.0478
5,CCGCAAAG,-0.106
6,GCCCGATA,-0.0903
7,CACGTGAG,-0.0359
8,AATGCGAT,0.128
9,ACAGACGA,0.236
10,AATCCAGG,0.0662
11,CGTAGTAA,0.207
12,AAGATATG,0.283
13,GAAGGCAA,-0.165
14,CCAAAGGC,0.00611
15,ACCTAGCA,-0.12
16,TCCGAGCA,-0.0191
17,CCGTCACG,0.04
18,ACGTCAGC,-0.0336
19,AGCCAATC,0.0251
20,GCTATGAC,0.0492
21,AGGGCCAA,-0.321
22,GAGTGGAA,-0.182
23,AGCATGGA,-0.21
24,AGCGACAG,0.172
25,CAAAATAG,-0.142

row,Sequence,PBM E-score
1,TGAATACA,-0.00315
2,AAAAGTCT,0.0544
3,CATCAAGA,0.0429
4,AACGTAAC,0.132
5,CAGGGCAA,-0.19
6,AGTCAACA,-0.109
7,GGGGGCAA,-0.0502
8,ACTCCCTG,-0.273
9,CAGACCTC,0.00051
10,AAGTCGTA,0.163
11,ATATATCG,0.244
12,CCTATAAC,-0.117
13,CCGAGTAC,-0.0732
14,TACGGCGA,0.313
15,GTACAATA,0.242
16,GGCGGCGA,-0.223
17,AGAGCATC,-0.0958
18,GGCGCTCA,0.0329
19,CTAACAGA,0.133
20,ACTTGGCT,-0.255
21,AGCTATTC,-0.0512
22,CACCCGAG,-0.157
23,ATGCAGTC,0.0059
24,ACAACAAT,0.0693
25,GATCTCCC,-0.029

row,Sequence,PBM E-score
1,AGAAGCCG,-0.117
2,CCCAAGAG,-0.0637
3,AGGGCACC,-0.266
4,AATAAAGG,-0.155
5,TGAGTTAA,0.0647
6,AGCTCCTG,-0.189
7,GGTGAAAA,0.124
8,CGCAGAGA,-0.0553
9,AATAAATA,0.32
10,GTGGTGTA,-0.0517
11,AGCGACTC,0.0163
12,GCTAGTCA,0.0156
13,AAAGATAC,0.134
14,AATCACCC,0.195
15,GCTGTAAC,0.0262
16,AGAGGGGC,-0.24
17,AAGGTCGC,0.0476
18,ACAGATCT,-0.0985
19,CTATTCAG,0.0697
20,AAGGCAAC,-0.144
21,CAGATTTA,0.00418
22,ACGGGACA,0.0901
23,ACCGCCTC,-0.183
24,ATATATCA,0.311
25,AAGATCCT,0.0788

row,Sequence,PBM E-score
1,GCCCAAGA,-0.0151
2,AATTGAGG,-0.0502
3,ATGCCAGA,-0.0116
4,CGGGCGCC,-0.053
5,AGTTGGCC,-0.163
6,GCTTCCAC,-0.0734
7,ACCAAACT,0.00058
8,ACCATGAA,0.037
9,GTGCATAA,0.0588
10,GTGGTCCA,0.0315
11,TTAAAGAA,-0.0564
12,TAAGGGAA,0.0347
13,CATCCGGC,-0.223
14,CATTCAAC,0.0639
15,ATTAGATG,0.227
16,AGTAACTA,0.108
17,CAAATAAG,-0.11
18,CCTCGGCC,-0.128
19,ACACCCAC,-0.12
20,CGTTATAC,0.303
21,CAGTAATG,-0.0287
22,CTTAGTCC,0.0832
23,TCACTAGA,0.287
24,TACCGCTA,-0.0972
25,TAGCCGAA,0.0055

# Laid out differently: entries from further up.
row | Sequence | PBM E-score
6 | AGCTCCTG | -0.189
7 | GGTGAAAA | 0.124
8 | CGCAGAGA | -0.0553
9 | AATAAATA | 0.32
10 | GTGGTGTA | -0.0517
11 | AGCGACTC | 0.0163
12 | GCTAGTCA | 0.0156
13 | AAAGATAC | 0.134
14 | AATCACCC | 0.195
15 | GCTGTAAC | 0.0262
16 | AGAGGGGC | -0.24
17 | AAGGTCGC | 0.0476
19 | CTATTCAG | 0.0697
20 | AAGGCAAC | -0.144
21 | CAGATTTA | 0.00418
22 | ACGGGACA | 0.0901
23 | ACCGCCTC | -0.183
24 | ATATATCA | 0.311
25 | AAGATCCT | 0.0788
1 | GCCCAAGA | -0.0151
2 | AATTGAGG | -0.0502
3 | ATGCCAGA | -0.0116
4 | CGGGCGCC | -0.053
5 | AGTTGGCC | -0.163
6 | GCTTCCAC | -0.0734
7 | ACCAAACT | 0.00058
8 | ACCATGAA | 0.037
9 | GTGCATAA | 0.0588
10 | GTGGTCCA | 0.0315
11 | TTAAAGAA | -0.0564
12 | TAAGGGAA | 0.0347
13 | CATCCGGC | -0.223
14 | CATTCAAC | 0.0639
15 | ATTAGATG | 0.227
16 | AGTAACTA | 0.108
17 | CAAATAAG | -0.11
18 | CCTCGGCC | -0.128
19 | ACACCCAC | -0.12
20 | CGTTATAC | 0.303
21 | CAGTAATG | -0.0287
22 | CTTAGTCC | 0.0832
23 | TCACTAGA | 0.287
24 | TACCGCTA | -0.0972
25 | TAGCCGAA | 0.0055

# (list continues)

row,Sequence,PBM E-score
1,CGTGTGGA,0.0371
2,AGACACTC,-0.117
3,AGAACCGC,-0.00112
4,AAAAACTA,0.167
5,GAGACACA,-0.0393
6,ACTTCAAC,-0.0269
7,GTCGCCGA,0.12
8,GCAGTAAC,-0.187
9,AACCCGTC,0.0672
10,ATACTCTA,0.0906
11,GTGGATCA,0.227
12,AGGCGTTG,0.132
13,ACACCTCC,-0.245
14,ACCCTCGC,-0.287
15,CATGAGAG,-0.0275
16,ATACAATA,0.154
17,GCGGATGA,0.202
18,CTGATGAC,0.203
19,ACCAATCT,-0.188
20,CAGATTCC,-0.104
21,CCGTTAGC,-0.0533
22,CGCTAATC,0.0487
23,AAGCAACT,0.171
24,CTATCGCC,-0.0597
25,AACCTCCC,-0.0721

row,Sequence,PBM E-score
1,CGGTGATA,0.334
2,GGAATTTA,0.0465
3,AAAAAACG,0.239
4,AAATCGTG,0.192
5,AGTAGTTG,0.067
6,CTGACCTC,-0.108
7,TACCGCGA,-0.111
8,GTGAAAGA,0.179
9,GCCGGACC,-0.201
10,CTTGTATC,-0.147
11,CACCTCAC,0.11
12,ATCAGAAG,-0.0266
13,AGGCAGCG,-0.119
14,CAAGGAAG,-0.0169
15,GAGATACC,0.0737
16,GTAGGGCA,-0.0239
17,ATCCCTTG,-0.13
18,TGAGTGAA,-0.189
19,GATGTCCA,0.0505
20,ACGGCGCA,0.0786
21,CGAAAGAC,0.0276
22,GGTGTAAC,0.224
23,ATCCCACA,-0.108
24,ACGGGGTC,-0.0266
25,ATTCAGCC,-0.0917

row,Sequence,PBM E-score
1,CTTTTACA,0.188
2,ACATGAGG,-0.246
3,CATTAGTC,-0.14
4,ACCGTTGG,-0.0996
5,AGGGTCTA,-0.119
6,GAATATGA,0.0519
7,GCAGGCCA,-0.144
8,CCCACGGC,0.175
9,ATGCACGG,0.258
10,CCCAAACG,0.0235
11,GAAAGAGC,-0.153
12,CGCTTCAG,-0.147
13,AAATGACG,0.187
14,CGAGGTAG,-0.135
15,AACCTGAG,-0.0884
16,CTCAACGC,0.0795
17,GCACCTCA,0.141
18,CATCTTAA,0.0501
19,AAGGCGGA,-0.254
20,CGTCGACG,0.16
21,GTAGTTGA,0.124
22,AAGGGAGG,-0.307
